This passage reports cell number change and AC50 results from PubChem BioAssay AID2685 (National Center for Advancing Translational Sciences (NCATS), 2010).

Structures are written as SMILES. Some of the results follow. Further columns of the screen follow, without active or inactive calls. The list favours compounds with an active or inconclusive main result. The note in brackets gives the kind of curve behind each potency; many fits are weak.

The nature of this experiment: qHTS Assay for Lipid Storage Modulators in Drosophila S3 Cells.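 As to cell number change: cells counted by Cell Tracker Red CMTPX staining in the red channel.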 The note with it: BODIPY lipid droplet fluorescence, 18-24 h; for cell number change: measured here: cell count max response, cells fed with added oleic acid. A digest of the protocol:
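Laser-scanning cytometry quantifies lipid droplet accumulation (500–530 nm total intensity; droplet/cell object ratio) in oleic acid-fed (400 uM added) Drosophila S3 cells treated with a concentration series. 20 uM Triacsin C defined 100% inhibition.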

The mark [1] stands for this setting: measured here: cell number channel AC50, cells fed with added oleic acid.
Setting [2] is: measured here: lipid fluorescence (Fed channel) AC50, cells fed with added oleic acid.

On to `COc1ccc(N2CCN(c3nc4c(c(=O)[nH]c(=O)n4C)n3Cc3cccc(C)c3)CC2)cc1`, for which the cell number change is -2.89%. Further, under setting [1], the AC50 was 6.51 µM [rising, single point]. Also, under setting [2], the AC50 was 3.66 µM [rising, single point].
For `Cc1ccc(-c2nnc(SCC(=O)N/N=C/c3c(C)nn(-c4ccccc4)c3C)n2-c2ccc(C)cc2)cc1`, the cell number change came out at 17.4%. The AC50 under setting [2] was 20.6 µM [rising, partial curve].
Consider `COC(=O)c1nnn(-c2nonc2N)c1CSc1ccc(Cl)cc1`, for which the cell number change was -20.6%. The AC50 under setting [2] is 0.291 µM [rising, full curve].
For the molecule `CC(Sc1ccccn1)C(=O)Nc1ccc2c(c1)OCCO2` (stereo unspecified), the cell number change is 0.803%. Further, under setting [2], the concentration at half-maximal activity (AC50) was 1.03 µM [rising, full curve].
As for `CCn1cc(Br)c(C(=O)N(C)Cc2ccccc2)n1`, the cell number change is -6.56%. The AC50 under setting [2] is 0.13 µM [falling, full curve, poor fit].
As for `CCOC(=O)N1CCN(C(=O)C2CCN(S(=O)(=O)N(CC)CC)CC2)CC1`, the cell number change is -7.92%. Besides, the AC50 under setting [2] was 6.51 µM [falling, single point].
As for `O=C(/C=C/c1ccc(-c2ccccc2[N+](=O)[O-])o1)c1ccc(Br)cc1`, the cell number change stood at 69.8%. Under setting [1], the AC50 is 13 µM [rising, partial curve]. Under setting [2], the AC50 was 6.51 µM [rising, single point].
For the molecule `CCOC(=O)c1c(C)[nH]c(N=Nc2ccc(C)cc2C)c1C`, the cell number change is -70.7%.
On the same count and under the same terms, for `CC1(c2ccc(C#N)cc2)NC(=O)N(CC(=O)Nc2cc(S(=O)(=O)N3CCOCC3)ccc2Cl)C1=O` (stereo unspecified) the value was 49.1%; for `CC1(C)Cc2cccc(OCC(=O)N3CCN(S(=O)(=O)c4ccc(F)cc4)CC3)c2O1`, 0.467%.
The same measure, in the same setting: for `CN(CC(=O)NCc1ccccn1)S(=O)(=O)c1ccccc1` the value was 144%.
In the case of `CC(C)c1cc(N2CCN(C(=O)c3ccco3)CC2)n2c(nc3ccccc32)c1C#N`, the AC50 is, setting by setting: under setting [1], 0.411 µM [rising, full curve]; under setting [2], 0.291 µM [rising, partial curve, poor fit].
Turning to `COc1nnc(-c2ccc(N3CCCCC3)c(NC(=O)C3CCCCC3)c2)c2ccccc12`, the cell number change was -12.1%. In addition, the AC50 under setting [1] was 1.46 µM [rising, partial curve]. Besides, under setting [2], the AC50 was 0.58 µM [rising, single point].
For the molecule `Cc1oc2cc3oc(=O)c(CCC(=O)NCCCC(=O)O)c(C)c3cc2c1C`, the cell number change stood at 43.1%.
On the same count and under the same terms, next, `CN1C2=NCCN2C(=O)c2ccccc21`: 23.3%.
As to `NS(=O)(=O)c1ccc(CNC(=O)c2csc3c2CCCC3)cc1`, the cell number change is -9.41%. Also, the AC50 under setting [2] is 0.366 µM [falling, full curve, poor fit].
Turning to `O=C(Nc1ccc2c(c1)OCO2)C1CCN(Cc2cc3c(cc2O)OCO3)CC1`, the cell number change is 13.3%.
As to `C=CCOc1ccc(C2C3=C(CCCC3=O)N(CC(=O)O)C3=C2C(=O)CCC3)cc1OCC`, the cell number change worked out at 11.5%. Further, under setting [2], the AC50 is 29.1 µM [rising, single point].
For `COc1ccc(NC(=O)N2CCCC2C(=O)Nc2ccc(C)cc2)cc1` (stereo unspecified), the cell number change was 45.5%. Also, the AC50 under setting [1] was 13 µM [rising, partial curve, poor fit]. Moreover, the AC50 under setting [2] was 25.9 µM [rising, partial curve, poor fit].
For `CC(C)Cc1nnc(NC(=O)CSc2nc(O)c(Cc3ccccc3)c(=O)[nH]2)s1`, the cell number change was -29%.
In the case of `COc1ccc2c(c1)CC1c3c(cc4c(c3-2)OCO4)CC[N+]1(C)[O-]` (stereo unspecified), the cell number change was determined as 19.7%. Besides, the AC50 under setting [2] was 32.6 µM [rising, single point].
Turning to `O=C(Nc1cccc(C(F)(F)F)c1)N(Cc1ccc(Cl)cc1)CC(O)C(F)(F)F` (stereo unspecified), the cell number change is -75.3%. Moreover, the half-maximal activity concentration (AC50) under setting [1] is 14.6 µM [falling, partial curve]. Moreover, under setting [2], the AC50 is 20.6 µM [falling, single point].
In the case of `CCCCSc1nc2sc3c(c2c(=O)n1-c1ccccc1)CCN(C)C3`, the cell number change is 41.7%.
Consider `C#CCOCCOCCOCCNc1nc(N2CCOCC2)nc(N2CCN(C(=O)[C@H](Cc3cc4ccccc4[nH]3)n3cc([C@@H](N)CC(C)C)nn3)CC2)n1`, for which the cell number change was 14.4%. For the same molecule, under setting [2], the AC50 is 6.51 µM [rising, single point].
On to `CCC(C(=O)O)n1nnc(-c2ccc(-c3ccc(OC)cc3)cc2)n1` (stereo unspecified), for which the cell number change came out at 6.9%. Also, the AC50 under setting [2] was 4.61 µM [falling, single point].
Consider `COc1ccc(-c2nn3c(COc4ccccc4)nnc3s2)cc1OC`, for which the cell number change was -1.44%. Moreover, the AC50 under setting [2] was 6.51 µM [rising, single point].
Take `Cn1cccc1C(=O)Nc1nccs1`: the cell number change was 19.9%. Also, under setting [2], the AC50 was 9.2 µM [rising, single point].
For `CC(NC(=O)c1ccncc1)C(C)(C)C` (stereo unspecified), the cell number change is -37.5%. Under setting [1], the half-maximal activity concentration (AC50) was 5.8 µM [falling, full curve]. The AC50 under setting [2] was 14.6 µM [falling, partial curve].
On to `CC(=O)NS(=O)(=O)c1ccc(NC(=O)c2ccc(NC(=O)c3cccs3)cc2)cc1`, for which the cell number change is 6.46%. Further, the AC50 under setting [2] was 0.164 µM [falling, full curve, poor fit].
Consider `CC(=O)c1ccc(NC(=O)CSc2ccc(-c3sc(C)nc3C)nn2)cc1`, for which the cell number change worked out at 20.9%. Also, the AC50 under setting [2] was 1.46 µM [rising, full curve, poor fit].
For the molecule `O=S(=O)(N/N=C\c1ccc2c(c1)OCO2)c1ccc(Cl)cc1`, the cell number change is -26.2%. Also, the AC50 under setting [2] was 29.1 µM [falling, single point].
In the case of `Nc1ccc(C(=O)OCc2csc(-c3ccccc3)n2)cc1[N+](=O)[O-]`, the cell number change was -4.05%. The AC50 under setting [2] is 16.4 µM [falling, single point].
For `CCOC(=O)c1cc(-c2ccc(Cl)cc2)nc2c1c(C)nn2CCC#N`, the cell number change is -21.1%.
As for `COc1ccc(C=C(C#N)C#N)c(CSc2ccccn2)c1`, the cell number change is -8.11%. Further, under setting [2], the AC50 was 16.4 µM [falling, single point].
Take `COc1ccc(Cl)cc1NC(=O)CN(C)C(=O)C12CC3CC(CC(Cl)(C3)C1)C2`: the cell number change was -8.5%. Moreover, the AC50 under setting [2] was 29.1 µM [rising, single point].
With `c1ccc(Cn2c(CSc3nnnn3-c3ccccc3)nc3ccccc32)cc1`, the cell number change is -3.24%.
For the molecule `CC(=O)c1cccc(S(=O)(=O)NC2CCSc3ccccc32)c1` (stereo unspecified), the cell number change came out at 31.9%. Moreover, the AC50 under setting [2] was 18.4 µM [rising, single point].
In the case of `COc1ccccc1NC(=O)C(C)OC(=O)CCSc1ccc(F)cc1` (stereo unspecified), the cell number change was 123%. Under setting [1], the AC50 is 29.1 µM [rising, single point].
In the case of `O=C(CSc1nnc(-c2ccccn2)n1Cc1ccco1)c1ccccc1`, the cell number change is -22.1%. Also, the AC50 under setting [2] is 29.1 µM [rising, single point].
Turning to `O=C(CCN1CCN(c2ccccc2)CC1)N/N=C/c1ccc([N+](=O)[O-])o1`, the cell number change is -1.37%.
For `Cc1ccc(S(=O)(=O)N(CC(=O)NCc2ccco2)c2ccccc2C)cc1`, the cell number change is -37.2%. Also, the AC50 under setting [1] was 9.2 µM [falling, partial curve, poor fit].
`CS(=O)(=O)c1ccc(-c2nnc(NC(=O)c3ccc(S(=O)(=O)N4CCCC4)cc3)o2)cc1`: the cell number change was found to be 15.2%. For the same molecule, the AC50 under setting [2] was 0.326 µM [falling, full curve, poor fit].
As for `CSCC[C@H](NC(=O)C(C)(C)Oc1ccc(Cl)cc1)c1nc2ccccc2[nH]1`, the cell number change was -16.2%. Under setting [1], the AC50 was 1.46 µM [rising, partial curve]. Besides, under setting [2], the AC50 is 2.31 µM [falling, full curve, poor fit].
For `CCCCNC(=O)C(c1ccc(-c2ccccc2)cc1)N(CCN1CCOCC1)C(=O)CCCCCN1C(=O)NC(c2ccc([N+](=O)[O-])cc2)C(C(=O)OCc2ccccc2)=C1C` (stereo unspecified), the cell number change stood at 13.5%. Besides, the AC50 under setting [2] is 7.31 µM [rising, partial curve].
Turning to `O=C1C(Cc2ccc(Br)cc2)SC(=Nc2ccccc2)N1c1ccccc1` (stereo unspecified), the cell number change was found to be 15.7%. For the same molecule, under setting [2], the AC50 was 16.4 µM [rising, single point].
In the case of `CC(CN1CCCCC1)C(=O)NNC(=O)C12CC3CC(CC(C3)C1)C2` (stereo unspecified), the cell number change is -6.65%.
As to `COc1ccc(-n2nc(C(=O)NCC(=O)NCc3ccccc3OC)c3ccccc3c2=O)c(OC)c1`, the cell number change was -0.9%. Moreover, under setting [2], the AC50 was 7.31 µM [rising, single point].
As for `O=C(/C=C/c1cccnc1)c1ccccc1O`, the cell number change was found to be 13.1%. Also, the AC50 under setting [2] was 1.03 µM [rising, full curve, poor fit].
As to `CCCn1c(CC)nc([N+](=O)[O-])c1Sc1ccc(F)cc1`, the cell number change stood at 15.5%. Moreover, the AC50 under setting [2] is 18.4 µM [rising, single point].
As for `CCCCn1nc2cc(C(=O)NCC34CC5CC(CC(C5)C3)C4)ccc2c1OCC`, the cell number change was -33.2%. The AC50 under setting [1] was 10.3 µM [falling, partial curve]. Further, under setting [2], the AC50 was 16.4 µM [falling, partial curve].
Consider `Cc1ccccc1NS(=O)(=O)c1ccc(C(=O)N2CCCC(C(F)(F)F)C2)cc1` (stereo unspecified), for which the cell number change was -20.4%.
Take `CCCCCCCc1n[nH]c(=S)n1Cc1ccccc1`: the cell number change was -34.3%. For the same molecule, the AC50 under setting [1] was 20.6 µM [falling, single point]. The AC50 under setting [2] was 25.9 µM [falling, single point].
Turning to `CCN(CC)S(=O)(=O)c1ccc(C)c(NC(=O)CNCc2ccccc2OC)c1`, the cell number change came out at 15.3%.
Consider `COc1ccc(CNC(=O)Cn2ncn3cccc3c2=O)cc1`, for which the cell number change was -35.1%. Besides, the AC50 under setting [1] is 18.4 µM [falling, single point]. Also, the AC50 under setting [2] was 0.00517 µM [falling, full curve, poor fit].
As to `Cc1ccc(NC(=O)Cn2nc(C(F)(F)F)c3c2CCC3)cc1`, the cell number change came out at 29.5%. Moreover, under setting [1], the AC50 was 2.31 µM [rising, single point]. In addition, the half-maximal activity concentration (AC50) under setting [2] was 3.26 µM [rising, single point].
`CCOc1cc(C=O)cc(Br)c1OCC(N)=O`: the cell number change was -32.9%. Moreover, the AC50 under setting [1] is 6.51 µM [falling, single point].
On to `Cc1ccc(C(=O)Nc2cccc(N3C(=O)C4CCC(C)CC4C3=O)c2)cc1` (stereo unspecified), for which the cell number change was -28.2%. Also, the AC50 under setting [2] is 29.1 µM [falling, single point].
Turning to `O=C1OCC/C1=C\c1ccc2c(c1)OCO2`, the cell number change was -53.8%. In addition, the AC50 under setting [1] was 23.1 µM [falling, partial curve, poor fit]. The AC50 under setting [2] was 25.9 µM [falling, partial curve, poor fit].
As to `COc1ccc(C(=O)N/C(=C\c2cn(S(=O)(=O)N(C)C)c3ccccc23)C(=O)NCCCn2ccnc2)cc1`, the cell number change is 15.8%. In addition, under setting [1], the half-maximal activity concentration (AC50) was 2.31 µM [falling, partial curve]. The AC50 under setting [2] was 0.58 µM [falling, single point].
